# Library screening results

Sequences of proteins named here, by UniProt entry; tags and fusion partners are left off.
UniProt E9BF75, entry or part of it: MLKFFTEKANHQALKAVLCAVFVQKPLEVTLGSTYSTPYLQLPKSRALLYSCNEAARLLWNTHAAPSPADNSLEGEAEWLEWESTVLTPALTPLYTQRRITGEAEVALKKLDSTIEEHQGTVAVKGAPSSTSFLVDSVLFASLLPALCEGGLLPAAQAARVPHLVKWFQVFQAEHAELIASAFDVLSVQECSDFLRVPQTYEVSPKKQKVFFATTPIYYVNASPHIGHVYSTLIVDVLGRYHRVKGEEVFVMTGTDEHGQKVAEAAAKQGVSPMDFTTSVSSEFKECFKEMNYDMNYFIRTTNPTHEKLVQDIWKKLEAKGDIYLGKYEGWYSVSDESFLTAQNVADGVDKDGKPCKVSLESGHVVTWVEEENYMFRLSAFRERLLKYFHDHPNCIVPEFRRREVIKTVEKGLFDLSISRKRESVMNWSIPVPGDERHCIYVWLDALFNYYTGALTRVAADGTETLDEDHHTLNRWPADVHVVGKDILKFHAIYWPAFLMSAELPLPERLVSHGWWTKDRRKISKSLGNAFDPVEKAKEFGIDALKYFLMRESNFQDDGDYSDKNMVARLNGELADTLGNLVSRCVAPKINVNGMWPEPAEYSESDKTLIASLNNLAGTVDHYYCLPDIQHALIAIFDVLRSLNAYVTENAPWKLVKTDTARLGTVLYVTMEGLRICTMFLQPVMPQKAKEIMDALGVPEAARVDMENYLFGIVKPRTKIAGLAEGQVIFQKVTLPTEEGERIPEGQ

Measurements from “University of Dundee, Small-Polar-MMV Screening Library” (2021), ChEMBL document CHEMBL3988442.

LdMetRS: 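Primary screen of methionyl-tRNA synthetase; the read-out is not stated. Target: Methionyl-tRNA synthetase (putative), Leishmania donovani (UniProt E9BF75). The test concentration is not given. Values are per cent inhibition. About 68,000 compounds were tested under these conditions; 0.035% (about 24) showed 50% or more at least once.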
Mtb heat-shock: 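Assay on Mycobacterium tuberculosis, filed only as a heat shock assay from Cornell; the read-out is not stated. The concentration is filed as 10 mM, unlikely as a test dose, so the dose is not known. The record gives no direction; compounds that gave an IC50 in retests scored well above the rest, so higher reads as stronger inhibition. Of about 69,000 compounds tested this way, about 930 (1.4%) reached 50% or more in at least one test.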

Results are percentages, as filed. The record does not define 0% and 100%; most values in the screen are far below 50% and negative numbers occur (in some assays of this library far below -100). This is an unselected part of the compounds tested. A dash means the value is not listed here; it may have been measured.

Compound | LdMetRS | Mtb heat-shock
O=S(=O)(c1ccccc1Cl)N1CCC2(CC1)OCCS2 | -2.158% | -20.92%
Cc1cnc(CNc2ncc(C)c(-c3cnn(C)c3)n2)cn1 | 12.79% | -8.963%
O=C(Nc1nc2c(s1)CN(S(=O)(=O)C1CC1)CC2)C1CC1 | 12.36% | -23.53%
Fc1ccccc1-c1cc(N2[C@@H]3CC[C@H]2CNC3)n2nccc2n1 | 15.22% | -
CN(C)CC(=O)N1Cc2nnn(C)c2C(COCc2ccccn2)C1.O=C(O)C(F)(F)F.O=C(O)C(F)(F)F (stereo not drawn) | - | -22.05%
COc1cccc(OCC2CCCN(Cc3ccncc3)C2)c1 (stereo not drawn) | 19.4% | -7.528%
COCc1nnc2n1CCN(Cc1ccoc1)C2.O=C(O)C(F)(F)F | - | 3.275%
Cl.O=C(NCC(F)F)c1cnc(C2CCCN2)cn1 (stereo not drawn) | - | 0.304%
CCc1n[nH]c(C2CN(C(=O)c3ncoc3C(C)C)CCO2)n1 (stereo not drawn) | 15.68% | 20.24%
Cc1ccc2[nH]c(CNC(=O)C3CC4(CCNCC4)CN3C)nc2c1C (stereo not drawn) | 14.24% | -43%
Cc1noc(C2CCCN(C(=O)c3cc(Cl)ccc3F)C2)n1 (stereo not drawn) | 7.216% | -0.624%
COc1cccc(OCCc2nnc(NC(C)=O)s2)c1 | 0.7538% | 4.84%
O=C(O)C(F)(F)F.O=C(O)C(F)(F)F.[H][C@@]12CN(CCOC)C[C@]1([H])[C@@H](OC)CCN2S(=O)(=O)c1cccnc1 | - | -10.15%
Cc1ccc(N2CC3(COCCN(Cc4ccncc4)C3)OCC2=O)s1 (stereo not drawn) | 2.837% | -
Cn1cc(-c2ccnc(NCC3CCN(Cc4ccccc4)C3)n2)cn1 (stereo not drawn) | 11.64% | 9.755%
CCc1cc(N(C)Cc2c(C)nn(C)c2C)n2nccc2n1 | 10.78% | 3.335%
CCN1C[C@@H](C(=O)O)[C@H](c2cccc(OC)c2)C1 | 8.289% | 13.04%
[H][C@]12CCCC(=O)N[C@@]1(C)CCCCN2C(=O)c1cccc(C)n1 | - | -13.19%
CCc1nnc2n1CCN(Cc1csc(-c3ccsc3)n1)C2 | 12.39% | 5.094%
CC(=O)N1CCCCC1c1cc(C(=O)N2CCOCC2)[nH]n1 (stereo not drawn) | 6.507% | -24.71%
COc1ccc(-c2nc3c([nH]2)CCCNC3=O)cc1OC | 22.64% | 0.6825%
[H][C@@]12C[C@H](NC(=O)c3cc4nc(C)cc(C)n4n3)CN1CCN(C)C2 | - | -15.67%
CS(=O)(=O)N1CCC(c2nc3ccc(-c4cccc(F)c4)cn3n2)CC1 | 15.93% | 18.88%
COC(=O)CN(Cc1ccccc1C)C(=O)C1CCC1 | -3.591% | -23.85%
Cc1cnn(CC2CCCN2C(=O)Cc2n[nH]c3ccccc23)c1 (stereo not drawn) | 5.164% | 1.003%
O=C(NCCC1=CCCCC1)NC1CCCc2c1cnn2CCO (stereo not drawn) | 21.22% | -24.16%
COc1ncccc1NC(=O)N(C1CC1)C(C)C(C)C (stereo not drawn) | 10.8% | -0.7928%
[H][C@@]12CCN(C(=O)COC)C[C@@]1([H])O[C@@H](C)C2 | - | 3.806%
O=C(NCc1ccc(Cl)cc1)[C@@H]1Cc2[nH]cnc2CN1CC1CC1 | 9.89% | -17.9%
Cc1nc(CCN2CCC(Oc3ccccc3F)CC2)cs1 | 0.3497% | -23.39%
CNc1nc(C2CCCN(C(=O)C(C)C)C2)nc2c1CN(C)CC2 (stereo not drawn) | 0% | 11.6%
O=C(C1CN(Cc2ccsc2)Cc2ccnn2C1)N1CCCC1.O=C(O)C(F)(F)F.O=C(O)C(F)(F)F (stereo not drawn) | - | -14.46%
Cc1ccc2c(c1)CCC2NCc1c(C)nn(CCO)c1C (stereo not drawn) | 8.741% | -
O=C(CCc1ccccn1)N1CCCC(N2CCNC2=O)C1 (stereo not drawn) | 15.09% | -1.323%
Cc1ccc(C)c(Oc2cc(-n3nc(C)c(C#N)c3N)nc(C)n2)c1 | 15.26% | 12.94%
Cc1nn(C)cc1C(=O)NC(CC(C)C)C(=O)Nc1cc[nH]n1 (stereo not drawn) | 0.9926% | -17.44%
CCc1[nH]ncc1C(=O)N1CCCC(n2ccnc2C)C1 (stereo not drawn) | 10.24% | -7.834%
CCOc1c(CNCCCn2ccnc2)cc(Cl)cc1OC | -0.7792% | -
Cc1ccc(C(C)NC(=O)CCc2cnn(C)c2)cc1F (stereo not drawn) | -17.68% | 0.006301%
CC(C)(C)c1n[nH]c(C2CN(C(=O)c3ccsc3)CCO2)n1 (stereo not drawn) | 6.748% | 22.82%
CCc1nn(C)c(Cl)c1CN1CCC(c2cc(O)nc(C)n2)CC1 | 11.2% | -8.001%
CN(CC(F)(F)F)C(=O)CNC(=O)N1CCC(N2CCCC2)C1 (stereo not drawn) | 16.52% | 17.32%
CSc1ccccc1NC(=O)c1ccc(N2CCOCC2)nn1 | 4.802% | 12.6%
O=C(COc1ccccc1F)NCC(O)(c1ccccc1)C1CC1 (stereo not drawn) | 19.25% | -21.92%